From patent US20220119490A1
These are yes or no findings as the source states them, for the method shown. In cells and extracts the contact can be indirect. Some entries that bind do so weakly or less than the wild type. Where a sequence is shown, tags or fusion partners need not be part of it.

The chains behind the UniProt entries cited, without tags or fusion partners. Residues count along the entry.
UniProt Q7KYR7, residues 29-527: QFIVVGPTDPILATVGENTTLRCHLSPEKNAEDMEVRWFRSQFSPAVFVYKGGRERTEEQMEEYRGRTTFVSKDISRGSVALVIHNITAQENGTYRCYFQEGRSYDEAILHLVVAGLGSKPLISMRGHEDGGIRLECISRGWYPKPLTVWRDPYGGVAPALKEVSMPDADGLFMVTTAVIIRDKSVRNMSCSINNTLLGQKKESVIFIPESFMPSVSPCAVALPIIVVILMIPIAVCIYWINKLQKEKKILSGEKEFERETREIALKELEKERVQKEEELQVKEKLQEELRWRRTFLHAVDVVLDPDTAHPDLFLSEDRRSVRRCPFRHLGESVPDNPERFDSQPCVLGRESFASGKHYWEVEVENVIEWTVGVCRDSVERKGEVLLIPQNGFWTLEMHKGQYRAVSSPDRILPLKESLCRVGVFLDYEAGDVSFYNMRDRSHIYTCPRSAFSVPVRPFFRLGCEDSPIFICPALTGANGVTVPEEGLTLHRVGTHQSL

Target: BTN2A1-HA (human) (UniProt Q7KYR7)
Test: co-immunoprecipitation from co-transfected cells, IP anti-FLAG, western blot

- binding: binds
B1: FAM-FLAG (receptor, not shown: small tags and cut ends)
chain: FYFSISCPSGKQCQQALLSGNDILLYCNSSGAHWYYLFTQGKKGRLTSLTNISNMEIMPEGSLLIKDPLPSQTGLYHCWNKNGRQVVQYEIDFQDVTTLHITHKDLGQRPLQNETLHLGSKQLIFTWWEPWQDCNRCEEPGECKRLGYRYIEEPLEEAMPCWLYLGEVLVWSSRLRPELQVEACHVQCTNNTQLRVDYVIFDNFRLDEKTEFVWLDCPLGSMYRPVNWRANDTPLTWESQLSGQDFTTFLDPSTGGRQLQVFQPAVYKCFVQQELVAQFKPAASLETLEAQWRENDAQWREARKALRGRADSVLKGLKLVLLVVTVLALLGALLKCIHPSPGRRSTQVLVVK
